These are yes or no findings as the source states them, for the method shown. Some results given as binding are weak or reduced against the parent protein; the word gives no strength. Tags and fused reporters may be left off the sequences shown.
Key:
Experiment in all cases: BLI
[1] = target: T1, human VISTA-Fc H2A mutant (histidines 153-155 replaced by alanine) (human) (UniProt Q9H7M9)
T1 sequence: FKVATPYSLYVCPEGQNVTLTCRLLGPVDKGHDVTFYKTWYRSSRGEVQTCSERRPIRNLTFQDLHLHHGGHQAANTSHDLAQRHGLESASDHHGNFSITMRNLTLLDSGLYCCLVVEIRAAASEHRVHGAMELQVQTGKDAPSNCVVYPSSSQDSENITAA

[2] = target: T2, human VISTA-Fc H2D mutant (histidines 153-155 replaced by aspartic acid) (human) (UniProt Q9H7M9)
T2 sequence: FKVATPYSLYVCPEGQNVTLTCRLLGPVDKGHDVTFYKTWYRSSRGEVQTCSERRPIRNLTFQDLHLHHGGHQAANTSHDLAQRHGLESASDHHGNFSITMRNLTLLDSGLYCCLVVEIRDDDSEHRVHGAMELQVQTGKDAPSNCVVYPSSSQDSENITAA

[3] = target: T3, human VISTA-Fc H2R mutant (histidines 153-155 replaced by arginine) (human) (UniProt Q9H7M9)
T3 sequence: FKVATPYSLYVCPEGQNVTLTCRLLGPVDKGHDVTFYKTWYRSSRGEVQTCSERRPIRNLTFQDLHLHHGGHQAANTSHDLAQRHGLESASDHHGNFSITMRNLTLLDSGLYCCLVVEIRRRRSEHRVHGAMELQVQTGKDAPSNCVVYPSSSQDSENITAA

Measured: binding

B1: VISTA.5 (VISTA antibody 1, non-blocking antibody) (antibody, V domains shown)
VH: AVQLQESGPGLVRPSQSLSLTCTVTDYSITSDYAWNWIRQFPGSKLEWLGFIGYSGNTNYNPSLESRISITRHTSKNQFFLHLNSMTTEDTATYYCARSLYGGSHWYFDVWGAGTTVTVSS
VL: DIVLTQSPASLAVSLGQRATISCRGSESVEYYGTILMQWYQQKPGQPPKLLIYGASNVESGVPARFSGSGSGTDFSLNIHPVEEDDIAMYFCQQSRKVPWTFGGGTKLEIK
binds: all assays above
